Data: PubChem BioAssay AID1508600 (Functional Genomics Laboratory (NCATS/FGL), 2020)
Out of some 53,000 sequences screened, about 3,700 (7%) were called active.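 How the source made its calls: active means gene knockdowns whose robust z-score for IL-1 alpha signal is at least 2 or at most -2, so actives lie on both sides; inactive means the rest.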 The list shows a part of the results.

Assay: Components of the Cytosolic LPS Sensing Pathway: Gene Identification via Genome-wide siRNA Screen;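 further: robust z of the log signal after scaling to non-targeting control siRNA wells of the plate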
Details: RAW264.7 macrophages, IL-1a HTRF, actives lie on both sides, screened at 100 nM (by protocol), cells primed 5 h with Pam3CSK4 first
Outline: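 Cells (RAW264.7, 1×10^4 per well) were transfected with siRNA at 100 nM and cultured 48h at 37 degrees C. Pam3CSK4 was added for 5 hours; LipidA transfection followed for 24 hour. IL-1a was then measured by HTRF.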

z-score, inactive:
GGUAGACUUGAAGAAGUCATT against Mief1 -0.538
CCUAUCUCAUACCUACAUGTT against Resf1 -0.979
UUUUUUCUGGUUCACUUCATT against Olfr177 0.00452
GCAAACUCGGACUUUCAAATT against Lamtor3 0.443
GGUGUAGGAAGAAUGUUUATT against Pfdn1 -0.448
GGUACGAGUGAUCGUACUUTT against 5330438I03Rik 0.54
GGGUUUCUUACUGAAGAAATT against Mindy2 -1.43
GCCCAAUCAAAAAAUGGUGTT against Zyx -0.0505
GGAGUAGCUGUUCUAAUUGTT against Scamp5 -1.65
CGUAGCUUAAUCUGGCAGATT against Aldh1a7 0.0971
GCAGAGAUUUAUGAAGCAUTT against Tbp 0.274
CACUAGUUGCUGGUCUUACTT against Pdxdc1 0.167
GUAAAUCCAUCUCUCUAGCTT against Cyp3a16 1.54
GGGAGUGAAUCAUUAUCUUTT against Tbl1xr1 0.203
GGCCCAAAAACAGGUAAAGTT against Adrb1 -0.129
GGAACUGGAGAAGAAAUUUTT against Sp100 0.309
GCAGCUAGUAUCCAGGCUATT against Ifrd1 -0.776
GGACUUCAUGACCACCUAUTT against Ctsf 0.136
CGAGGUGACCUACAAGAUUTT against Csdc2 -0.582
CUCAGGAAAUAGGCCCAGATT against A530064D06Rik 1.18
GGAUAUCAUUGUGCCCACUTT against Olfr920 -0.334
GGAGAUAUCUGGUAUACCCTT against Bace2 -0.386
GGACAUGUGUGCAAAUCCATT against Slc35f3 -0.8
GCAGACAGAAGAACACCAGTT against 1700024G13Rik -0.177
GGGAGGAAGGAAGAGUAUUTT against Itga4 -0.984
GGAGGAAUUUCAAAUACUATT against A530032D15Rik 0.853
GGCCUGCCAGAUAUGAAAATT against Ces2c 1.97
GGUAAAAUACCUAAGAACCTT against Pnma2 1.52
GGGACUGUCUCCAAGACUCTT against Nkx2-9 0.121
GGAAAGUGAUCCAGAAAUGTT against Olfr1026 -0.781
GGAUGGGUCCAUUGAGCCATT against Lrpap1 -0.327
CGAAGCUGGUUUACCAAAATT against Gna14 -0.218
GGUGCUUCCAACUUCACAGTT against Bcorl1 -0.00398
GGUAAUUAUGCUGCUUAUGTT against Phf20 -0.457
GGCUUAAGUCUACCGAACUTT against Rpp25l -1.41
GGGUCAUCCACUUUGUCAGTT against Fam177a -0.584
GGAUCACCAGACCUUUUUCTT against St7l -1.94
GGUAUCCUGAGUUUCAGCCTT against E230015B07Rik -1.15
GCUGUGUGACCAGCUGUUGTT against Krtap9-1 0.44
GCGAAAUCCUGGGCUACUCTT against Dyrk4 -0.32
CCAAAGGUUACCAGGAAGCTT against Pcsk4 0.124
GGAUCACUCUAAUUCAGAUTT against Fcamr 1.93
GGGAUGUCAGCAAUCUAAATT against Pmfbp1 -0.2
GGAAGACGUAAAGCUUUCUTT against Olfr1006 0.593
CUUCGUAGCAGUCAUCCUUTT against Bcl2 0.545
CCUCAGAUUGCCAAAAGUUTT against Tnip1 -1.05
GGUCCAAGUAAUGAACUCATT against Olfr155 -1.19
GGCACAGCUGGAUGAAGAATT against Gucy1b1 -0.557
GGGUGAUAUGGACUAUAGGTT against Cd1d2 0.0215
CCUCUAAAGUCCUCAAUAGTT against Myoz2 0.377
GCUAUCAUGAAGCUAAAUGTT against Igf2bp1 0.267
GCUAAUUCCAAGAAAGAAGTT against Lifr -0.326
GAGCGAACAUGUGUUUUACTT against H4c8 0.56
GGCGGCUCCUUUCAACUUCTT against Cfb 0.774
CGGGUCCAUUAACAAAGCUTT against Bmp1 -1.62
GGAUCCAGGAGUAUGAGAATT against Atp5h 0.585
GGGCUACGGACAUUUCAUUTT against Pcare 0.294
GGCUGCAUUUUAAAACCGUTT against Prdm1 0.358
CCUUUUUGAGGAAUUUGGATT against Scaf8 -0.0964
GGAGAAGAUGAAGUUGAAGTT against Nudt21 -1.52
GCAACGGAGACUUCAGUAATT against Zbtb39 0.569
CCACCACAGCACCGGAUAATT against Mrgprb3 0.278
GGAUUCAACAGAUUUAGUGTT against Clcn1 1.79
GGCUUCAUUAUCUGUUCUGTT against Olfr1442 -0.205
GGUAGAAAACAUAAAUGGUTT against Sec16a 1.71
GGAGCUUCUUAAUAACUUUTT against Xpo6 -0.132
GGUAAACAGAAUAGAAUCCTT against Lcmt1 0.622
CCCAAAGAGAAAUUUCUAGTT against Meltf 0.801
GGCUCUGAACAGCAUUGACTT against Mdfi -0.521
CCUCUAUGACUGGUACAGGTT against Ttyh3 -1.2
GGACGACAAAUAGAAUUCUTT against Odf1 1.57
GGGAUUGCUAUGUGCUUAGTT against As3mt -0.265
GGAAAAGUUUGAAACCAAATT against Pmpca 0.126
GGAAUACAAAGAUAGCUUCTT against Atrn 0.786
GGCUGACGAAUGACAGUUGTT against Katnal2 0.68
GGCAGAAGUCCAACUUCUUTT against Pirt -0.363
CCCAAUUCGAUUUCUGCCGTT against Rnf11 -0.77
GCAAAUAAUGACGUGGCUATT against Rmi1 0.101
GGAGUAUGAGAUGCAGUGUTT against Nat9 -0.207
GCAGCAAGCUGAAAAAGAGTT against Cstl1 0.237
GCUACUUCAUUCCCGUGGCTT against Slc29a1 0.523
GACACCAAAGUCUUUGAGUTT against Olfr315 -0.989
CCACUUUCAACCUGACCGUTT against Pcdhac2 0.345
GCUGAUGUUAUUUAACAUGTT against Tas2r124 1.33
GGUACUAUGAAGACUUAGATT against Nup214 -1.33
GGCAAUAGAAUCAAGAUUUTT against C130021I20Rik -0.172
GGUUGUGCAAGAGUAUGAATT against Nphs2 0.316
GCCCUUACCUUGUAAGUUCTT against Sln 0.0766
GGCUAUGAGUCGACUGAUUTT against Scin 1.12
GGAUGCUGACAACAUAUACTT against Plk3 -0.726
GGAGGGAACAUGUGGAAGUTT against Ndufaf7 0.0902
CGCGUGCAUUAAUGCCUCUTT against Abhd16b 0.46
GGGAACCUUGAAAUCAAUATT against Gpr75 -0.192
CCUGGAUUUCCGGGAGUACTT against Col4a1 0.83
GCAUGUCUCAACUAAGGACTT against Upk3b 1.03
GGACAUCUCUACAAAUUACTT against Hsp90b1 -0.81
GGCCAUCGAAACUUUCUCGTT against Igf2bp1 -0.192
GCAGCUGGAUGCUACUAACTT against Klhl30 0.953
GGGUCUUGGAUAUGUGGUUTT against Olfr1337 -0.311
CCGUCAUCUACACCUAUUUTT against Olfr525 0.102

Four records picked at random from those above:
z-score, inactive:
GGAACUGGAGAAGAAAUUUTT against Sp100 0.309
GGCUAUGAGUCGACUGAUUTT against Scin 1.12
GGAUCACCAGACCUUUUUCTT against St7l -1.94
GGUAGACUUGAAGAAGUCATT against Mief1 -0.538

An excerpt from further up, as a working copy:
z-score, inactive:
GGCUGCAUUUUAAAACCGUTT against Prdm1 0.358
CCUUUUUGAGGAAUUUGGATT against Scaf8 -0.0964
GGAGAAGAUGAAGUUGAAGTT against Nudt21 -1.52

Following part:

z-score, active:
GCCCUCCUUAUAGCUUAAUTT against Asic3 -2.2
GGAAGAAGAACUGAAGACATT against Ctnnbl1 2.22
CGUGAUUUCAUGCUGUGGCTT against Tal2 -2.19
GCGCAGAUAUCCUGGUUUGTT against Dhx36 2.28
CGGCUUACGCAUGUCUAUGTT against Polr2a -2.01
GCUCAGUCAUGUGACCGCATT against Fbxl18 2.93
